Data: article doi:10.1101/2023.05.23.542025

By UniProt entry, the sequences of proteins in these tests, tags left out.
UniProt P45481: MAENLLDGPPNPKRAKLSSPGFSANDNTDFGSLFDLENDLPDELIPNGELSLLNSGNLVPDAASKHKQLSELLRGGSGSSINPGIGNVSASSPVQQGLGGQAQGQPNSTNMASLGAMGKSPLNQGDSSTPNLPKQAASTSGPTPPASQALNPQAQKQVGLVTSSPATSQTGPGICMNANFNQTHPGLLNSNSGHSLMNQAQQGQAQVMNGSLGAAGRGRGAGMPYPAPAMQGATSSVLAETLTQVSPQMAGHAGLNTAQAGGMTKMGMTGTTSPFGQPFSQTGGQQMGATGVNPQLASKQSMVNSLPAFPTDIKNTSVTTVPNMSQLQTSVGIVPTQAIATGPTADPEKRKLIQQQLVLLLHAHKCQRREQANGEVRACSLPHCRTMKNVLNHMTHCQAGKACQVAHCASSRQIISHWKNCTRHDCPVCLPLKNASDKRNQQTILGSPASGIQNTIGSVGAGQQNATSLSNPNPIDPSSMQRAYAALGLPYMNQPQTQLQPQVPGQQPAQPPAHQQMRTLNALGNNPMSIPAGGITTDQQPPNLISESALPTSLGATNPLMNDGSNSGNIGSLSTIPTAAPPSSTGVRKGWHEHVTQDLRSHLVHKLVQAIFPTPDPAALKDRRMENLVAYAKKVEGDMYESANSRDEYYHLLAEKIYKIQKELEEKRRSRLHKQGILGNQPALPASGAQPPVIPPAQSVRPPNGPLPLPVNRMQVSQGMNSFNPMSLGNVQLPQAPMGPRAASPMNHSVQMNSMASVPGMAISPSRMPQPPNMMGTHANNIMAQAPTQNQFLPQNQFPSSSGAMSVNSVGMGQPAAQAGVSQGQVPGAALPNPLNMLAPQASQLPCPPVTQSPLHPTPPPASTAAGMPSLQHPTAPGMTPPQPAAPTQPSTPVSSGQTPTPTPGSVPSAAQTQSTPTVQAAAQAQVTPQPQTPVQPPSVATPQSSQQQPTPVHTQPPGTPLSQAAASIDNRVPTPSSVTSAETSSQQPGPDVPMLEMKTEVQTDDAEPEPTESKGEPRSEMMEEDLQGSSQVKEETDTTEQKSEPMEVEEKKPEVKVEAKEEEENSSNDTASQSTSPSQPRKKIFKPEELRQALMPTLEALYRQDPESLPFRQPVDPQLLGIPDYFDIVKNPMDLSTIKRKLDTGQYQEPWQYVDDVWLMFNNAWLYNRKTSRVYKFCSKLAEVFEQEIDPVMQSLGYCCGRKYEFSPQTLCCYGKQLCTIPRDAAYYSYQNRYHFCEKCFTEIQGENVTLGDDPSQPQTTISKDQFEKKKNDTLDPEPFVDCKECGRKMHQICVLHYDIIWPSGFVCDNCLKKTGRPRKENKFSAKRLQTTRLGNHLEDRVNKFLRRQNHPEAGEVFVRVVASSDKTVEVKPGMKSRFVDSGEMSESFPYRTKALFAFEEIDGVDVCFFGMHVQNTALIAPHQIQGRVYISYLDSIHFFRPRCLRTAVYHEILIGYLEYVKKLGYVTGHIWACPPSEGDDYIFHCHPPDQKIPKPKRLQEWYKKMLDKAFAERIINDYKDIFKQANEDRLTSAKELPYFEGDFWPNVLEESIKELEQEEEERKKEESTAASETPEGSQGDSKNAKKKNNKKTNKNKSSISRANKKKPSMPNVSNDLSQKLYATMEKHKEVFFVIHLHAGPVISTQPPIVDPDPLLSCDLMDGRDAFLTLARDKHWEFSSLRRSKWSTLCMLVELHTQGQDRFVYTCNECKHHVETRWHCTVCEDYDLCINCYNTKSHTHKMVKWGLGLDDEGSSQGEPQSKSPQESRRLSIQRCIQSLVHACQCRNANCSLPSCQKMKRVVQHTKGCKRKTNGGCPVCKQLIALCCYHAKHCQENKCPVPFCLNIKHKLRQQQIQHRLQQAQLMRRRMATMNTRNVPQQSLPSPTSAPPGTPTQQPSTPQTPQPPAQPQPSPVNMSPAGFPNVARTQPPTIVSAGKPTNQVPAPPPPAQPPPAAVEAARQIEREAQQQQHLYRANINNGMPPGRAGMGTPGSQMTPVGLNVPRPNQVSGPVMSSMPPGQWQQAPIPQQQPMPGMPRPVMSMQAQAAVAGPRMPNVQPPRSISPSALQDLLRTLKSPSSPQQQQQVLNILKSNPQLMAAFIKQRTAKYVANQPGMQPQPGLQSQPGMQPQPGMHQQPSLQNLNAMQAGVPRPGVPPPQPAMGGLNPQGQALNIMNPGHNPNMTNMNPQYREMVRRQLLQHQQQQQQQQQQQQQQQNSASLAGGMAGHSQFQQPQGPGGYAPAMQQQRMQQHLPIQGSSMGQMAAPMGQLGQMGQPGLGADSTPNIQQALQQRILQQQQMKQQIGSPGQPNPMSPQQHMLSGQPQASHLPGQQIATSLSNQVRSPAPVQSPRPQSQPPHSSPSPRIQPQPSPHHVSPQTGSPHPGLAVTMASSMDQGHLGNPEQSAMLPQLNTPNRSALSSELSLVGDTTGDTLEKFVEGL

Target: T1, Flag-tagged STAT6 (UniProt P52633)
T1 sequence: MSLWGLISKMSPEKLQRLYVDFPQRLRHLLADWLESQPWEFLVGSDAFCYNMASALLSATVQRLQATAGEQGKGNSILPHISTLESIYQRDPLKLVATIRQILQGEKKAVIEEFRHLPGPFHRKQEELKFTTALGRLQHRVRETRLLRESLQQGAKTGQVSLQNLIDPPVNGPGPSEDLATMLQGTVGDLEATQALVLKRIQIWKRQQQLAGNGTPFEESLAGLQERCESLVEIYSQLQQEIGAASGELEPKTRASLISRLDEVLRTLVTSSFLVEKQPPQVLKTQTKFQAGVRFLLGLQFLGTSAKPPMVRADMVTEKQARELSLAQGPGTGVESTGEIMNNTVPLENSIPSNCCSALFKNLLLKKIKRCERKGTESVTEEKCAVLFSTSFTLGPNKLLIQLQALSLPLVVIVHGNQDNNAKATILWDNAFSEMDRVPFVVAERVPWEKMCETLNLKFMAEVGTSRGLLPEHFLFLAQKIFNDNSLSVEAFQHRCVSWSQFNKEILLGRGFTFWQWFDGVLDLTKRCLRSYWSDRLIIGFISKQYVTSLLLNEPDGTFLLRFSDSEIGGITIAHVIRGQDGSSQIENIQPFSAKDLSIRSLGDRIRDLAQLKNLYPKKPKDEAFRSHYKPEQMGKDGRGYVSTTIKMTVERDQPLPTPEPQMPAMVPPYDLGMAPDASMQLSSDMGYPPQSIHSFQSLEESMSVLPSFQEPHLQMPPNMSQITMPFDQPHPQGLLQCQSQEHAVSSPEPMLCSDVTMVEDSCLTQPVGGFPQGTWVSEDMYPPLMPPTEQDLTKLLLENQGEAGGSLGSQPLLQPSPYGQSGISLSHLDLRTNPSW
Assay: affinity purification with mass spectrometry

## cAMP-response element binding protein (CBP) (from UniProt P45481 1-2441)
  binding: binds

These are yes or no findings as the source states them, for the method shown. In cells and extracts the contact can be indirect. A yes stands for co-enrichment or nearness to the bait. Other partners may have been found. Where a sequence is shown, tags or fusion partners need not be part of it.
